Data from the supplement of paper PMC10849652.
Some of the results follow.

Amino acid sequences for entries named in this document (tags omitted). A change or cut given only in a name is not applied to a line headed by its entry.
UniProt Q13352: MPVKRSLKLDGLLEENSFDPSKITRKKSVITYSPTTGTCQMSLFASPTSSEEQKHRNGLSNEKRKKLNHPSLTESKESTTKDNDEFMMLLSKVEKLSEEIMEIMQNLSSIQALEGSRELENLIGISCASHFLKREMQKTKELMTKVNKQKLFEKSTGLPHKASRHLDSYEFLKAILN
UniProt Q14624: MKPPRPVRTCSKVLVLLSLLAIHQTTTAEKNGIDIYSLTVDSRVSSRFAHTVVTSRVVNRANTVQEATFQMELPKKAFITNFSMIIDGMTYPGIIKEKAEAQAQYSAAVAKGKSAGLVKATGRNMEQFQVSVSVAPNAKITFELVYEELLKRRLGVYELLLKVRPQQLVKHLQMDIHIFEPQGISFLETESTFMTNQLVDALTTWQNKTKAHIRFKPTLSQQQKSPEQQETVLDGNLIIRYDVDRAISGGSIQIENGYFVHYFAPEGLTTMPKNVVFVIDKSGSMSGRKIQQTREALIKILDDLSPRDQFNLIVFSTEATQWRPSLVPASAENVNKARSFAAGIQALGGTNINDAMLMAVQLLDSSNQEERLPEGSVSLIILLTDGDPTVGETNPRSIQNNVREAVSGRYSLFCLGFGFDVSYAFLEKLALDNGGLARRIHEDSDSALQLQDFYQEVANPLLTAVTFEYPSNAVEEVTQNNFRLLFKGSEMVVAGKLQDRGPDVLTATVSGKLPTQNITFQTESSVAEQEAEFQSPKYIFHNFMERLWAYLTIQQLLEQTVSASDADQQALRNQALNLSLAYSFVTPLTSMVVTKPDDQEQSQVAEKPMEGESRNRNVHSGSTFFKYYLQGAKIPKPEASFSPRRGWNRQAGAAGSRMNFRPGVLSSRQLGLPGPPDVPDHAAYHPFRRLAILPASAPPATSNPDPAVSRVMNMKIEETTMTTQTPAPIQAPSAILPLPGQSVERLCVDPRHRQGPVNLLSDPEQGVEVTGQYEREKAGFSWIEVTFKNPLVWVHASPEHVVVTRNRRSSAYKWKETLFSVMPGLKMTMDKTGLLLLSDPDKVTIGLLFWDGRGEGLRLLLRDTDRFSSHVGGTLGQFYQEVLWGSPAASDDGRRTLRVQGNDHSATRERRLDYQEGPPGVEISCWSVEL
UniProt P17275: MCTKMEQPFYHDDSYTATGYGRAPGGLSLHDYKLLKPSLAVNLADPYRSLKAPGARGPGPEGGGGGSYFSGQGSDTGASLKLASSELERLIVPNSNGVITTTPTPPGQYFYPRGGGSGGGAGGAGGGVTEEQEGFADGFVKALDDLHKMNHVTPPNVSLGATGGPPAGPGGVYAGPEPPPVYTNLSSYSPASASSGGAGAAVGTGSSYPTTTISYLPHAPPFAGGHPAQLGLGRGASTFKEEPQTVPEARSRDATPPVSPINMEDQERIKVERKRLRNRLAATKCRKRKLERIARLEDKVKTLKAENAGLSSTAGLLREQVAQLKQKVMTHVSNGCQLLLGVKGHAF
UniProt Q9Y219: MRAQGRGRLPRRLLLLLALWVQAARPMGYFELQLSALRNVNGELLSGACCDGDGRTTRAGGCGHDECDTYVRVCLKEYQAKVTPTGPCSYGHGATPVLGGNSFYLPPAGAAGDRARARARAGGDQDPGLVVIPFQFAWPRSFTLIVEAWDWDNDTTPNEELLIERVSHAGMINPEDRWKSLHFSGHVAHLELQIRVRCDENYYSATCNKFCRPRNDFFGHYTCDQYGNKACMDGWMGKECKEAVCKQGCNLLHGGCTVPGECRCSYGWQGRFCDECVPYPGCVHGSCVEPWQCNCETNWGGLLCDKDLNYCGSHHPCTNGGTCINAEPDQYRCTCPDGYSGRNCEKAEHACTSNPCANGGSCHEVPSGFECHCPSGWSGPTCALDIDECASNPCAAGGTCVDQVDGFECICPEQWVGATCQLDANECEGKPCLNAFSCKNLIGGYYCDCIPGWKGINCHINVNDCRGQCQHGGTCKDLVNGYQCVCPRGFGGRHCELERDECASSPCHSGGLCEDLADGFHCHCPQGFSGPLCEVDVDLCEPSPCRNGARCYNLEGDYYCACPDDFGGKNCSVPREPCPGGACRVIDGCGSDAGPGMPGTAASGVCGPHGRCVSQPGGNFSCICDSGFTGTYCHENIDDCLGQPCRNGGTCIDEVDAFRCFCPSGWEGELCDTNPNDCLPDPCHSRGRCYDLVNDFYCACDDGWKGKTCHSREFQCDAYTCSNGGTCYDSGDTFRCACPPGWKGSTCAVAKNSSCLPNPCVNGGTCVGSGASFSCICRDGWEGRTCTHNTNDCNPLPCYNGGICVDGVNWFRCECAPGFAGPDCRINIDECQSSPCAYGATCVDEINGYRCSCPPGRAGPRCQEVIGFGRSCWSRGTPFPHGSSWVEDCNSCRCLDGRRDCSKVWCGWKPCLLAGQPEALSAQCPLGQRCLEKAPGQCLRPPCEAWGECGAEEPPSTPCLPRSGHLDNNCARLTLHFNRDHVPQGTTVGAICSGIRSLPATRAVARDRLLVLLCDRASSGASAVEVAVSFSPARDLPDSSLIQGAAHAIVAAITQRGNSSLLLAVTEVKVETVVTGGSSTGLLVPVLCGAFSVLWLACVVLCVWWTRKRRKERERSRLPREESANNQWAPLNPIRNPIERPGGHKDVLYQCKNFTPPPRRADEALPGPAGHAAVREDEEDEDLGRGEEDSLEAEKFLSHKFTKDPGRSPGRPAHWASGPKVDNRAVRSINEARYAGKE
UniProt Q00978: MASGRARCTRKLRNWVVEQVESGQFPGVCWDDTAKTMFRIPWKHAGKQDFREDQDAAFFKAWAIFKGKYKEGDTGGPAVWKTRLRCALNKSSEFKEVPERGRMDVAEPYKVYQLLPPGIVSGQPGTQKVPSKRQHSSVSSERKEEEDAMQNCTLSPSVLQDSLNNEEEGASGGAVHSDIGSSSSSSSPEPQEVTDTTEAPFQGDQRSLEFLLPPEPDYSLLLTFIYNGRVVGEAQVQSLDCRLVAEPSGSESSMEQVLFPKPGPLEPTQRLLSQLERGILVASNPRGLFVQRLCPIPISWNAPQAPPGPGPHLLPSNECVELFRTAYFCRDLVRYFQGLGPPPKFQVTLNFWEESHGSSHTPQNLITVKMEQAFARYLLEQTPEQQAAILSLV
UniProt Q68DU8: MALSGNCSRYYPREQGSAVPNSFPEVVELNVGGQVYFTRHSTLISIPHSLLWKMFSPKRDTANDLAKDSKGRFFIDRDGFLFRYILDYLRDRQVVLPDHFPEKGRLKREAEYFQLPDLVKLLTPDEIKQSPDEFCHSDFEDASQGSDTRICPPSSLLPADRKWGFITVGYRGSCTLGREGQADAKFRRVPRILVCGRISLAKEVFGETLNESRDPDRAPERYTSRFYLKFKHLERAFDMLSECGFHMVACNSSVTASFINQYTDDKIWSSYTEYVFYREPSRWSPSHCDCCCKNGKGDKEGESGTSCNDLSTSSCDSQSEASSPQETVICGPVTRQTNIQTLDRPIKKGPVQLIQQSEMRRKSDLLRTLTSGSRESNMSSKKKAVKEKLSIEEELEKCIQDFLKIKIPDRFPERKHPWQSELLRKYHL
UniProt Q06033: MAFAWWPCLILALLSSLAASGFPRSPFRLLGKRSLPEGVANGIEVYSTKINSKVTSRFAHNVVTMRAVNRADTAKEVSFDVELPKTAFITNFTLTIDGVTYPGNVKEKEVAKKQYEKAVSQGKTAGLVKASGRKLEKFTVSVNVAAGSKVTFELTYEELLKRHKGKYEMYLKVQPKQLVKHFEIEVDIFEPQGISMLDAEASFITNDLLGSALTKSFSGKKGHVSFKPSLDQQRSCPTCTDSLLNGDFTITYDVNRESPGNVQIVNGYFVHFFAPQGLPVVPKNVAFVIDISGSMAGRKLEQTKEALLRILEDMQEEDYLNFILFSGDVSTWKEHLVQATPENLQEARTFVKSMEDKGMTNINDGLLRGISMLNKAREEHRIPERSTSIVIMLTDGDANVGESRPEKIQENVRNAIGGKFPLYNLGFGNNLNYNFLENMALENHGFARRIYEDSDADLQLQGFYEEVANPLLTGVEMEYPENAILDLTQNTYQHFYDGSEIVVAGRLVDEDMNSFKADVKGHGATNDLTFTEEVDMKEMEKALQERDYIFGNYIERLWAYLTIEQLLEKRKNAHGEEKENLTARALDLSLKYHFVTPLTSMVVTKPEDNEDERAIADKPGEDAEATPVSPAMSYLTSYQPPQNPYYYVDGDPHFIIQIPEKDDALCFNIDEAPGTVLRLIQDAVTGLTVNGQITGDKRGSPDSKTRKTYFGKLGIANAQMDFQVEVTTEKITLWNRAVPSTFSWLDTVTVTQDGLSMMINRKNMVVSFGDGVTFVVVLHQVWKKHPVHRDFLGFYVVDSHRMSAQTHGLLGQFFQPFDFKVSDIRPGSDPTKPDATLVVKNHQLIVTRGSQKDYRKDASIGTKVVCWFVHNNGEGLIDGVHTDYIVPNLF
UniProt Q9H910: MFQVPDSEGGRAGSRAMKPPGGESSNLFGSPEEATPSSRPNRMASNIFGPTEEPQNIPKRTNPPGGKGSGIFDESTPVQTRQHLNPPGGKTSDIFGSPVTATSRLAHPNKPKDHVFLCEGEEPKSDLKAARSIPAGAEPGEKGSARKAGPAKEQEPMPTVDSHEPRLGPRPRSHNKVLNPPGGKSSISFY
UniProt Q96MP8: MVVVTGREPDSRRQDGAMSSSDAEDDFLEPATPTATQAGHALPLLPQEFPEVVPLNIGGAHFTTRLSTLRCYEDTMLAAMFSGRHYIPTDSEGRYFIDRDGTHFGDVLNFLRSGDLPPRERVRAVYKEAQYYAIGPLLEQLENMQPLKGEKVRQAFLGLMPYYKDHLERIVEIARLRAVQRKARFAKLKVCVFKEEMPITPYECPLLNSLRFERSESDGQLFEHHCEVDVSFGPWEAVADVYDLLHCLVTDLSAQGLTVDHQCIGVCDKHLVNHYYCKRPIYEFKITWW

Legend:
Test in all cases: log2 fold change, soluble protein after heating vs DMSO (PISA); higher = thermal stabilisation; K562 lysate, 10 uM; active = over 0.2 and 3.5 SD of the protein, either way, in both replicates (recomputed)
[1] = compound: NC1(c2ccc(-c3nc4ccn5c(=O)[nH]nc5c4cc3-c3ccccc3)cc2)CCC1
How it was run: (§1)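 Values give the log-two fold change in thermal stability against solvent controls, from duplicates. Crude K562 extract at 1 mg/mL protein, made by dounce homogenisation in PBS pH 7.4 with 1 mM MgCl2, was treated with 10 μM compound for 30 min. After 3 min heating across 48°C-58°C, aliquots were pooled, adjusted to 0.5% NP-40 at 4°C and centrifuged at 21,000xg for 90 min. The supernatant was measured by TMTpro 16plex LC-MS/MS with channel sums equalised.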

quisinostat = compound: Cn1cc(CNCC2CCN(c3ncc(C(=O)NO)cn3)CC2)c2ccccc21 [quisinostat]
How it was run: as §1

[2] = compound: NC(=O)Nc1cc(-c2cccc(F)c2)sc1C(=O)N[C@H]1CCCNC1
How it was run: as §1

dasatinib = compound: Cc1nc(Nc2ncc(C(=O)Nc3c(C)cccc3Cl)s2)cc(N2CCN(CCO)CC2)n1 [dasatinib]
How it was run: as §1

[3] = compound: Cn1cc(-c2ccc3c(c2)CCN3C(=O)Cc2cccc(C(F)(F)F)c2)c2c(N)ncnc21
How it was run: as §1

[4] = compound: NC(=O)c1cnc(N[C@@H]2CCCC[C@@H]2N)nc1Nc1cccc(-n2nccn2)c1
How it was run: as §1

Measured: log2 fold change

JOSD1 (UniProt Q15040)
inactive: [1] 0.001

ITGB3BP isoform 5 (UniProt Q13352)
inactive: quisinostat -0.015 | [2] 0.192

ITIH4 (UniProt Q14624)
inactive: dasatinib -0.003 | [3] -0.03 | [1] -0.278

JUNB (UniProt P17275)
inactive: dasatinib 0.066 | [3] -0.176 | quisinostat -0.11 | [2] -0.047

JAG2 (UniProt Q9Y219)
inactive: dasatinib -0.159 | [3] 0.06 | quisinostat 0.183 | [2] -0.068 | [4] 0.061 | [1] 0.103

IRF9 (UniProt Q00978)
inactive: dasatinib -0.05 | [3] 0.107 | [1] 0.139

KCTD16 (UniProt Q68DU8)
inactive: quisinostat -0.149 | [2] -0.033

2 entries picked at random from those above, as already listed:
KCTD16 (UniProt Q68DU8)
inactive: quisinostat -0.149 | [2] -0.033

JUNB (UniProt P17275)
inactive: dasatinib 0.066 | [3] -0.176 | quisinostat -0.11 | [2] -0.047

Next part:

ITIH3 (UniProt Q06033)
inactive: [1] -0.053

JPT2 isoform 2 (UniProt Q9H910)
inactive: dasatinib -0.103 | [3] 0.12

KCTD7 (UniProt Q96MP8)
inactive: dasatinib 0.049 | [3] 0.009 | quisinostat -0.02 | [2] 0.087 | [4] 0.038 | [1] -0.035
